# Data as given in PubChem BioAssay AID1259405 (NCATS, 2018).
# Screen: 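Knock-downs that lift recombinant protein yield in hamster ovary cells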 (primary screen)
# System: Chinese hamster CHO-K1 ovary cells with stable secreted eGFP expression
# Reagent: single siRNA against mouse genes, 0.8 pmol siRNA per well (2 µl of 400 nM stock)
# Duration: 3 days
# Measured: 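Percent of the per-plate non-targeting control median for intracellular GFP per well by laser scanning cytometry and for cell viability by ATP luminescence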
# Scale: GFP, % of control: higher = more GFP per well, higher productivity; viability (ATP), % of control: higher = more viable cells (more ATP)
# Hit rule: 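Called active when intracellular GFP, relative to negative control, is at or above 120%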
# Shown is a random part of about 50,000 reagents. Over the whole deposit, about 4,000 (8%) got an active call. 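Mouse siRNA library applied to hamster cells; one well for each siRNA.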 A number with no mark means an inactive call. The numbers tell different reagents against one gene apart.
Gene,siRNA no.,"GFP, % of control","viability (ATP), % of control"
Pus7,1,67.4,41.1
Pus7,2,98.4,76
Pus7,3,60.3,32.9
Wtip,1,71.1,90.7
Wtip,2,61.7,62.1
Tmem39b,1,73.4,24.1
Tmem39b,2,58.9,78.8
Tmem39b,3,88.3,97
Vps13a,1,77.5,75.3
Vps13a,2,17.6,29.6
Vps13a,3,92.6,95.6
Ube2i,1,135 (active),59
Ube2i,2,102,64.7
Ube2i,3,97.1,60.9
Oxct2b,1,79.9,79.3
Oxct2b,2,67.2,58.2
Oxct2b,3,50.6,41.1
Lyl1,1,62.5,43.6
Lyl1,2,80.4,68.8
Lyl1,3,76.4,85.7
Ccdc25,1,142 (active),104
Ccdc25,2,48.2,48.7
Ccdc25,3,102,95.3
Isoc1,1,88,101
Isoc1,2,15.7,32
Isoc1,3,60.9,61.7
Pus1,1,34.8,55.1
Pus1,2,91.6,78.5
Pus1,3,99.4,110
Zfp667,1,44.1,50
Zfp667,2,92.6,94.7
Ankrd52,1,65.7,66.3
Ankrd52,2,37.5,32.6
Ankrd52,3,44.2,61
Hspa2,1,83.6,71.3
Hspa2,2,82.5,88.2
Hspa2,3,58.7,108
Mst1r,1,68,66

Records above whose gene name starts with I or i:
Gene,siRNA no.,"GFP, % of control","viability (ATP), % of control"
Isoc1,1,88,101
Isoc1,2,15.7,32
Isoc1,3,60.9,61.7

The results go on.
Gene,siRNA no.,"GFP, % of control","viability (ATP), % of control"
Atp2b3,1,93.2,59.6
Atp2b3,2,62.8,79.4
Atp2b3,3,42.9,41
Olfr242,1,59.2,56
Olfr242,2,63.5,67.9
Olfr242,3,52.6,76.1
Msn,1,67.4,65.3
Msn,2,99.3,75.4
Msn,3,96,77.2
Sltm,1,48,38.9
Sltm,2,70.6,59.2
Sltm,3,90.3,89.1
Fam53a,1,92.9,67
Fam53a,2,44.9,73.1
Fam53a,3,101,66.5
Tubb4a,1,53.5,43.6
Tubb4a,2,115,83.6
Ccdc77,1,85.3,58.6
Ccdc77,2,70.6,84.3
Ccdc77,3,66.7,75.7
Dnajb4,1,87.4,69.6
Dnajb4,2,107,84.6
Dnajb4,3,96.6,114
Or52r1b,1,66.6,67.1
Or52r1b,2,94.3,40.3
Or52r1b,3,136 (active),85.3
Kyat3,1,61.9,56.3
Kyat3,2,72.2,97.6
Kyat3,3,74.1,56.4
H13,1,84.6,96.7
H13,2,52.9,63.3
H13,3,52.8,65.5
Pcdha4,1,45.9,40.3
Pcdha4,2,81,77.8
Pcdha4,3,89.5,61.3
Sec61b,1,92.2,85.9
Sec61b,2,48.6,65.8
Sec61b,3,53.9,64.1
Or8g34,1,80.8,85.7
Or8g34,2,44.5,51.2
Or8g34,3,84.4,76.9
Or55b3,1,38.7,54.3
Or55b3,2,75.3,99.2
Or55b3,3,54.8,78.2
Sel1l,1,71.7,87.5
Sel1l,2,82.1,68.7
Sel1l,3,68.3,80.2
